Reference: the supplement of paper PMC10849652
This is one part of the list. Residues, ends and D or L forms follow the SMILES beside them. *: point of attachment. Cbz = O=C(OCc1ccccc1)*

Amino acid sequences for entries named in this document (tags omitted). A change or cut given only in a name is not applied to a line headed by its entry.
UniProt Q6P087: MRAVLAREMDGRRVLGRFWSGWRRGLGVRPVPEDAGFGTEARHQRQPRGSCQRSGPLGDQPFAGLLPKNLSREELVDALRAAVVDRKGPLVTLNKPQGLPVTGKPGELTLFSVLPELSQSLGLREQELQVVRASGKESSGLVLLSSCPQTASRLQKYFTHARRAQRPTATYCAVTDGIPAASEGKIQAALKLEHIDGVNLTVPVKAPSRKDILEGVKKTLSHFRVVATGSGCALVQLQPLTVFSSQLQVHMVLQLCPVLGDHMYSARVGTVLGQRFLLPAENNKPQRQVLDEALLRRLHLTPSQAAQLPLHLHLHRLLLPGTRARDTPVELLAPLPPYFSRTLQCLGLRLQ
UniProt Q5M7Z0: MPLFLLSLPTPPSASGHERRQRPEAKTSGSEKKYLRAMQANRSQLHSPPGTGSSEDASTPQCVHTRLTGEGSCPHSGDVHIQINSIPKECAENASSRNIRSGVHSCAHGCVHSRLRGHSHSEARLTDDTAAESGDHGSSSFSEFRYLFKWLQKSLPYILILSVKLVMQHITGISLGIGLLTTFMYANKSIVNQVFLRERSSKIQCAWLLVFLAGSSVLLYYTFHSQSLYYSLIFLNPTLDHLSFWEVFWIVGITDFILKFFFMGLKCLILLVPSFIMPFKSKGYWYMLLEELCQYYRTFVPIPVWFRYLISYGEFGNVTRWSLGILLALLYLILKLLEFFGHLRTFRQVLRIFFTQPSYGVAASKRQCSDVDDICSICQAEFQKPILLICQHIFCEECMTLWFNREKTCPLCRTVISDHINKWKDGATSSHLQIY
UniProt Q96CM3: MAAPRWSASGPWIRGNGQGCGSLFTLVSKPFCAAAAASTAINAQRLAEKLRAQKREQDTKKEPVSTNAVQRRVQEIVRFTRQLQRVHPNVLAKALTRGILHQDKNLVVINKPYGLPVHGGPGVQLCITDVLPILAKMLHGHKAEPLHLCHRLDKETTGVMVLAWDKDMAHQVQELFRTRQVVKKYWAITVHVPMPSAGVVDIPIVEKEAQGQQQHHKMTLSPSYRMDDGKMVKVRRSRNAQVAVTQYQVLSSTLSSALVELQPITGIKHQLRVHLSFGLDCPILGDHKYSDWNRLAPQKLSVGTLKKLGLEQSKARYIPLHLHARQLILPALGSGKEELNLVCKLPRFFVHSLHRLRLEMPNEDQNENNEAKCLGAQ
UniProt O75150, whole entry, looked up: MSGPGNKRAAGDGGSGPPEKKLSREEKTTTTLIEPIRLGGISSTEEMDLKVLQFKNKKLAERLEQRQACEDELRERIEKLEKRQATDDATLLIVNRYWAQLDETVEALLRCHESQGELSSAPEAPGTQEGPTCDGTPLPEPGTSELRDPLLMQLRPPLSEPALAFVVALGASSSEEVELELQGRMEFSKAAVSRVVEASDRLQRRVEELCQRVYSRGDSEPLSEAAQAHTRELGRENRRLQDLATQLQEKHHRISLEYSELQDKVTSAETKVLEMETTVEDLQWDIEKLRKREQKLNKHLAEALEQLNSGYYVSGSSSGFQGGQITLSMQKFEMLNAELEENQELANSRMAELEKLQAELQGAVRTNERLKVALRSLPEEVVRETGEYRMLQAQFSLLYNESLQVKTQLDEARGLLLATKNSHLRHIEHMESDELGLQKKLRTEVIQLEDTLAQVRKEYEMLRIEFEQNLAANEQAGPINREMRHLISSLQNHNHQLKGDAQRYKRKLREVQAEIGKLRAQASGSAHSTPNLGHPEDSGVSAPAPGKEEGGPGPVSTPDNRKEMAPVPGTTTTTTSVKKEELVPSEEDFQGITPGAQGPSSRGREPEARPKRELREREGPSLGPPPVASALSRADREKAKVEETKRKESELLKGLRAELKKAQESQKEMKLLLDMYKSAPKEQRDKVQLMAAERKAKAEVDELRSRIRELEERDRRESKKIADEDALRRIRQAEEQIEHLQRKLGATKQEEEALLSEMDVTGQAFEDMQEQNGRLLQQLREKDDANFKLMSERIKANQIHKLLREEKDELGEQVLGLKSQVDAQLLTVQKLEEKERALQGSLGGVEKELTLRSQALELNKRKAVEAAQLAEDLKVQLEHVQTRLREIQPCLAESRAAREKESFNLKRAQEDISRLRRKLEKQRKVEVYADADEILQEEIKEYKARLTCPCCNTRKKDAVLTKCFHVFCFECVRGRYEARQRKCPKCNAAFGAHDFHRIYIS
UniProt P08922: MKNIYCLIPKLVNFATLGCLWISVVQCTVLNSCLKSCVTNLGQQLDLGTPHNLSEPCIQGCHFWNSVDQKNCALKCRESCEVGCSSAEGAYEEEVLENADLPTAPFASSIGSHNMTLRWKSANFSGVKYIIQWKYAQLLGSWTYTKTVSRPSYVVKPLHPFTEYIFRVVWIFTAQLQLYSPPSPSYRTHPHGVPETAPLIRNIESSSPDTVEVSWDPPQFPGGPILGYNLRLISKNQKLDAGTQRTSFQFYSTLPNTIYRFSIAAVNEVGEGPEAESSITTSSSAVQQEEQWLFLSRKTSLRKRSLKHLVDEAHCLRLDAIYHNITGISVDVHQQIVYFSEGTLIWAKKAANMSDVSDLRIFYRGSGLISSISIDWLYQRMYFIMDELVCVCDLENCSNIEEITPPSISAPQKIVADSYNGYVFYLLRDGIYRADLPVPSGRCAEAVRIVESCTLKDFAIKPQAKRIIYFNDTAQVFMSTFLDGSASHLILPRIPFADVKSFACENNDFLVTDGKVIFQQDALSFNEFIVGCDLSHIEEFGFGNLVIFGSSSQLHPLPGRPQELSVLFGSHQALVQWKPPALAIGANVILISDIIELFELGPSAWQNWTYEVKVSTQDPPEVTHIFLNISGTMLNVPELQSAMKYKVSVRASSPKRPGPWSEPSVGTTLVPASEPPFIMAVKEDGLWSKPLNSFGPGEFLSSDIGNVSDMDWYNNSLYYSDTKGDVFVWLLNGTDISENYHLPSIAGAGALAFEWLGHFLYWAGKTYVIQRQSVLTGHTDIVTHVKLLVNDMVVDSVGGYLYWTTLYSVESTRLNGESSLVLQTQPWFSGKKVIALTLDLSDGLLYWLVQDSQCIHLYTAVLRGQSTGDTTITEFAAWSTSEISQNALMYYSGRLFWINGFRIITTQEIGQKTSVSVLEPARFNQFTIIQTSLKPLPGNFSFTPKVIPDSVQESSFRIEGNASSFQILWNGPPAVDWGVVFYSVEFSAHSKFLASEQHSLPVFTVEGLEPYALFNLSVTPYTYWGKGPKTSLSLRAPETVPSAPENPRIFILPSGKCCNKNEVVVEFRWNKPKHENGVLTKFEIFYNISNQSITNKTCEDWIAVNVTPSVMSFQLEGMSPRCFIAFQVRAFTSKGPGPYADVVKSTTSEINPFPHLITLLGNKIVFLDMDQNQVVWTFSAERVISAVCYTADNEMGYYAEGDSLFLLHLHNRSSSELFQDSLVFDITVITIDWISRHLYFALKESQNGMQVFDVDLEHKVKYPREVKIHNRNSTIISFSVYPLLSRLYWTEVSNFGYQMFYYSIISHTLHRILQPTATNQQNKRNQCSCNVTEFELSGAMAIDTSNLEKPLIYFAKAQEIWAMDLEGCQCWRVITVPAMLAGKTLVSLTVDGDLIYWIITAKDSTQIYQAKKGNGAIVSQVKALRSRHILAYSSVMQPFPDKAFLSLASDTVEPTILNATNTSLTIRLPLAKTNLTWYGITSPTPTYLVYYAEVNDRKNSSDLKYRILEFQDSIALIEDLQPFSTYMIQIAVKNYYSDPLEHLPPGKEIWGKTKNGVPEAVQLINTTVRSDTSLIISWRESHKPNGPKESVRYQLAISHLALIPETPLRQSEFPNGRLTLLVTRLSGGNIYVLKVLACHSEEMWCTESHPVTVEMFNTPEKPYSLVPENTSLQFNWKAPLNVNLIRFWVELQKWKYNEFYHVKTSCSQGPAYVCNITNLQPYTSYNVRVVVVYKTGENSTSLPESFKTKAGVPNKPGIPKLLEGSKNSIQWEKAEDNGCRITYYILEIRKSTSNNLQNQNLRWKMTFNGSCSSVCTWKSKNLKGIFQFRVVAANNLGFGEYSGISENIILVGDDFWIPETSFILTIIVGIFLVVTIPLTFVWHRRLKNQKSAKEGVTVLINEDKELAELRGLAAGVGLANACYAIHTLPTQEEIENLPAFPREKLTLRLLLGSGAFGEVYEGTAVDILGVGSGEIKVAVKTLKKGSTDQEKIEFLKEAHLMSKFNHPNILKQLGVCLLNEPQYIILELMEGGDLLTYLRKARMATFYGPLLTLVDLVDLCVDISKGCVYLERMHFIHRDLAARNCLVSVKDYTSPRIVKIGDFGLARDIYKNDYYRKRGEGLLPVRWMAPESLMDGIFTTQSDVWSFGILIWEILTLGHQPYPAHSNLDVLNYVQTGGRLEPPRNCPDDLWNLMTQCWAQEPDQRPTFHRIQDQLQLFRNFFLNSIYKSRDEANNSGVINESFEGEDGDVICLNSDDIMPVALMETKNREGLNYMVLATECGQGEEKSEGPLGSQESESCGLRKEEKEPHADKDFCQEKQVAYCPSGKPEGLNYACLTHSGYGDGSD
UniProt Q86UA6: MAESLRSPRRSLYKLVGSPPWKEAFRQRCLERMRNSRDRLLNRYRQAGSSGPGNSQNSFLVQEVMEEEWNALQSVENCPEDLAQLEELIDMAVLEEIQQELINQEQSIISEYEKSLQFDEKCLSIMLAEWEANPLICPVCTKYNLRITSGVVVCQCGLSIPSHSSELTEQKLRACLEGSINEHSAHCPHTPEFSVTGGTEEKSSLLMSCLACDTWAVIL

Tests used:
Assay in all cases: log2 fold change, soluble protein after heating vs DMSO (PISA); higher = thermal stabilisation; K562 cells, 10 uM, 30 min; active = over 0.2 and 3.5 SD of the protein, either way, in both replicates (recomputed)
erlotinib = compound: C#Cc1cccc(Nc2ncnc3cc(OCCOC)c(OCCOC)cc23)c1 [erlotinib]
Procedure, shortened: (§1)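 Thermal stability values are relative to control samples and come from duplicates. They are expressed as log2 fold changes. For measurement, K562 cells (2×10^6 cells/mL) received 10 μM compound for 30 min, and aliquots were heated for 3 min over 48°C-58°C, pooled, and extracted at 4°C in PBS with 0.5% NP-40. Soluble protein, the supernatant after 21,000xg for 90 min, was quantified by TMTpro 16plex LC-MS/MS with equalised channel sums.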

[1] = compound: C/C(=N\NC(=O)C1=CC(=CC=C1)S(=O)(=O)N2CCOCC2)/C3=C(C=CC(=C3)Cl)O
Procedure, shortened: as §1

[2] = compound: C1=CC(=CC=C1C2=NC3=C(N2)C=C(C=C3)C(=O)N)OC4=CC=C(C=C4)Cl
Procedure, shortened: as §1

[3] = compound: C1=CC2=C(C=CC(=C2)/C=C\3/C(=O)NC(=NCC4=CC=CS4)S3)N=C1
Procedure, shortened: as §1

[4] = compound: C1=CC2=NC=CN=C2C=C1/C=C/3\C(=O)NC(=O)S3
Procedure, shortened: as §1

[5] = compound: C1=CC=C(C=C1)C2=NC(=C(N2)C3=CC=NC=C3)C4=CC(=C(C=C4)Cl)O
Procedure, shortened: as §1

[6] = compound: C1=CC=C2C(=C1)C3=NNC4=CC=CC(=C43)C2=O
Procedure, shortened: as §1

[7] = compound: C1CCN(C1)C(=O)NC2=CC=CC(=C2)NC3=NC=C(C(=N3)NCCC4=CN=CN4)Br
Procedure, shortened: as §1

[8] = compound: C1CN(CCC1(CC2=CC=C(C=C2)Cl)N)C3=NC=NC4=C3C=CN4
Procedure, shortened: as §1

IRAK-1-4 Inhibitor I = compound: C1COCCN1CCN2C3=CC=CC=C3N=C2NC(=O)C4=CC(=CC=C4)[N+](=O)[O-] [IRAK-1-4 Inhibitor I]
Procedure, shortened: as §1

ibrutinib = compound: C=CC(=O)N1CCC[C@@H](n2nc(-c3ccc(Oc4ccccc4)cc3)c3c(N)ncnc32)C1 [ibrutinib]
Procedure, shortened: as §1

[9] = compound: CC(=O)c1cnc2ccc(-c3cc(Cl)c(O)c(Cl)c3)nc2c1N[C@H]1CC[C@H](CN(C)C)CC1
Procedure, shortened: as §1

ralimetinib = compound: CC(C)(C)Cn1c(N)nc2ccc(-c3[nH]c(C(C)(C)C)nc3-c3ccc(F)cc3)nc21 [ralimetinib]
Procedure, shortened: as §1

[10] = compound: CC(C)C1=C2N=C(C=C(N2N=C1)NCC3=CC=CC=C3)NCCCCCCN
Procedure, shortened: as §1

[11] = compound: CC(C)C[C@@H](C=O)NC(=O)[C@H](CC(C)C)NC(=O)[C@H](CC(C)C)NC(=O)OCc1ccccc1
Procedure, shortened: as §1

pinometostat = compound: CC(C)N(C[C@H]1O[C@@H](n2cnc3c(N)ncnc32)[C@H](O)[C@@H]1O)[C@H]1C[C@@H](CCc2nc3cc(C(C)(C)C)ccc3[nH]2)C1 [pinometostat]
Procedure, shortened: as §1

[12] = compound: CC1=C(C(CC(=O)N1)C2=CC=C(C=C2)C(F)(F)F)C(=O)NC3=C(C=C4C(=C3)C=NN4)F
Procedure, shortened: as §1

[13] = compound: CC1=C(C2=C(C=C1)C(=O)C3=CC=CC=C3N2CCCN)C
Procedure, shortened: as §1

[14] = compound: C1=CC(=C(C=C1Cl)C2=NC3=NC=CN=C3C(=N2)NC4=CC=NC=C4)F
Procedure, shortened: as §1

[15] = compound: CC(C)(O)CC(=O)NCCn1ccc2ncnc(Nc3ccc(Oc4cccc(C(F)(F)F)c4)c(Cl)c3)c21
Procedure, shortened: as §1

Measured: log2 fold change

RPS7, A0A2R8Y623
inactive: erlotinib 0.191 | [1] -0.203 | [2] -0.165 | [3] 0.465 | [4] -0.486 | [5] -0.803 | [6] -0.409 | [7] -0.568 | [8] -0.035 | IRAK-1-4 Inhibitor I -0.342 | ibrutinib 0.263 | [9] -0.015 | ralimetinib 0.19 | [10] 0.048 | [11] -0.19 | pinometostat -0.108 | [12] -0.385 | [13] 0.79

RPL10 (UniProt F8W7C6)
inactive: erlotinib -0.147 | [14] 0.04 | [2] 0.145 | [4] 0.197 | [7] 0.038 | [8] -0.191 | ibrutinib -0.049 | [15] 0 | [10] -0.089 | [12] 0.073 | [13] -0.353

RPUSD3 (UniProt Q6P087)
inactive: [1] 0.134 | [3] -0.214 | [6] -0.198 | [9] -0.042 | [12] 0.089

RPLP0 (UniProt F8VWV4)
inactive: [1] -0.428 | [14] -0.595 | [3] 0.099 | [6] -0.342 | [7] 0.194 | [8] -0.115 | IRAK-1-4 Inhibitor I -0.012 | [9] -0.112 | [15] 0.092 | pinometostat 0.153 | [13] -0.136

RNFT1 (UniProt Q5M7Z0)
inactive: erlotinib 0.02 | [14] -0.109 | [2] -0.245 | [5] -0.048 | ralimetinib 0.035 | [15] 0.021 | [10] -0.161 | [11] 0.003 | [12] 0.221

RPS3 (UniProt E9PJN9)
inactive: [5] 0.203 | [7] 0.021 | [8] -0.151 | ralimetinib 0.228 | [11] 0.134 | [13] -0.126

RPL37 (UniProt P61927)
inactive: erlotinib -0.216 | [1] -0.235 | [2] 0.041 | [3] -0.193 | [4] 0.019 | [5] -0.12 | [6] 0.016 | [7] 0.076 | [8] -0.162 | IRAK-1-4 Inhibitor I -0.221 | ibrutinib -0.157 | [9] 0.159 | ralimetinib 0.119 | [10] 0.013 | [11] 0.102 | pinometostat 0.346 | [12] 0.102 | [13] -0.634

RPUSD4 (UniProt Q96CM3)
inactive: [1] -0.134 | [14] -0.138 | [3] -0.017 | [5] -0.034 | [6] 0.061 | [7] -0.008 | [8] -0.158 | [9] 0.144 | ralimetinib 0.172 | [15] 0.067 | [11] 0.107 | [13] -0.342

RNF40 (UniProt O75150)
inactive: erlotinib -0.08 | [2] -0.115 | [4] 0.042 | [5] 0.051 | [7] -0.069 | [8] 0.104 | ibrutinib -0.242 | ralimetinib 0.024 | [10] 0.021 | [11] 0.129 | [13] -0.098

ROS1 (UniProt P08922)
inactive: erlotinib 0.201 | [1] 0.025 | [2] 0.035 | [3] 0.241 | [4] 0.128 | [6] 0.043 | IRAK-1-4 Inhibitor I 0 | ibrutinib -0.062 | [9] 0.028 | [10] 0.118 | pinometostat 0.064 | [12] 0.128

RPAIN isoform 8 (UniProt Q86UA6)
inactive: [1] 0.205 | [14] 0.085 | [3] -0.03 | [4] 0.048 | [5] 0.083 | [6] 0.009 | [7] -0.035 | [8] -0.002 | IRAK-1-4 Inhibitor I -0.022 | ibrutinib 0.034 | [9] -0.124 | ralimetinib -0.048 | [15] 0.048 | [11] -0.221 | pinometostat 0.011 | [13] -0.168
